The exact form of at least one protein or probe is not confirmed. At least one verdict was read from the data and is not stated in words by the source. Tags and fusion partners may be left off the protein sequences shown.
Biological target: T1, SsoSSB (single-stranded DNA-binding protein) (Sulfolobus solfataricus) (UniProt Q97W73)
T1 sequence (looked up, limits assumed): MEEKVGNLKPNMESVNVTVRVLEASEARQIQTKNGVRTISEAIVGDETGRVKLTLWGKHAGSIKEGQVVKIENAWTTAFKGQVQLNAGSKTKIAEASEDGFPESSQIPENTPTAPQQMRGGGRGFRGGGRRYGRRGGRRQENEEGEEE
Test: ITC
Settings: 50 C, named only in Fig. 1 legend, ITC: 20 mM MES pH 6.5, 100 mM K-glutamate, 1 mM MgCl2, 50 C, recombinant protein

Row | Sequence | binding result (may be the same titration as the 21U row) | binding result (may be the same titration as the 21T row, single-stranded DNA)
1 | AAAAAAAAAAAAAAAAAAAAA [R21A (21 nt poly-rA)] | binds | –
2 | AAAAAAAAAAAAAAAAAAAAA [21 nt poly-A DNA] | – | binds

From article PMC5346138, “High-affinity RNA binding by a hyperthermophilic single-stranded DNA-binding protein”
